Measurements reported in US20170022287A1.
Substitutions are numbered along the chain they refer to. Results are given in words; binding and its absence hold for the method and conditions named. Some binding calls cover weakened binding; strength is not graded here.

Protein sequences, listed by entry. Tags and fused reporters are not part of them. Residues count along the entry.
UniProt Q07011, residues 24-186: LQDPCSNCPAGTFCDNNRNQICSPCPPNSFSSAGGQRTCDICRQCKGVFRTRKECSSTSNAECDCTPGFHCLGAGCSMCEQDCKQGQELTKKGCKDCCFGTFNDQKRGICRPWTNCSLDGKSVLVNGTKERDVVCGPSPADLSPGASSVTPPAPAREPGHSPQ

B1: R1 (antibody, V domains shown)
VH: EVQLVQSGAEVKKPGASVKVSCKASGYTFTSYYTHWVRQAPGQGLEWMGIINPSGGSTSYAQKFQGRVTMTRDTSTSTVYMELSSLRSEDTAVYYCARGAPEYSSSSDYWGQGTMVTVSS
VL: QSALTQPASVSGSPGQSITISCTGTSSDVGGYNYVSWYQQHPGKAPKLMIYDVSNRPSGVSNRFSGSKSGNTASLTISGLQAEDEADYYCSSYTSSSTRWVFGGGTKLTVL
B2: R2 (antibody, V domains shown)
VH: EVQLQESGPGLVKPSETLSLTCTVSGGSISSSSYYWGWIRQPPGKGLEWIGSIHYTGSTYYNPSLKSRVTISVDTSKNQFSLKLSSVTAADTAVYYCARLNPSIAARPGAFDIWGQGTMVTVSS
VL: QSVLTQPPSVSAAPGQKVTISCSGSSSNIANNFVSWFQQLPGTAPKLLIYDNNKRPSGIPDRFSGSKSGTSATLGITGLQTGDEADYYCGTWDRSLSAGVFGGGTKVTVL
B3: R3 (antibody, V domains shown)
VH: B1 VH
VL: B1 VL with Y34F, N55K, N62T, S91N, S95T, V101M, L108V
B4: R4 (antibody, V domains shown)
VH: EVQLVQSGAEVKKPGASVKVSCKASGYTFSGYYMHWVRQAPGQGLEWMGWINPNSGDTNYAQNFQGRVTMTRDTSISTAYMELSRLRSDDTAVYYCARDGTGYSSSPDYWGQGTPVTVSS
VL: B1 VL
B5: R7 (antibody, V domains shown)
VH: QVQLLESGGGLVQPGGSLRLSCAASGFTFSSYAMSWVRQAPGKGLEWVSAISGSGGSTYYADSVKGRFTISRDNSKNTLYLQMNSLRAEDTAVYYCARDRAMYHPSFNYWGQGTLVTVSS
VL: DIQMTQSPSSLSASVGDRVTITCRASQSISSYLNWYQQKPGKAPKLLIYAASSLQSGVPSRFSGSGSGTDFTLTISSLQPEDFATYYCQQFNSYPLTFGGGTKVEIK
B6: R8 (antibody, V domains shown)
VH: QVQLQESGPGLVKPSETLSLTCAVSGYSISSGYYWGWIRQPPGKGLEWIGSIYHSGSTYYNPSLKSRVTISVDTSKNQFSLKLSSVTAADTAVYYCARQHSFTRYYGYYYFDYWGQGTTVTVSS
VL: B5 VL with Q89L, F91S, N92D, Y94I
B7: R11 (antibody, V domains shown)
VH: B5 VH with R100K, A101W, M102Y, H104Y, S106A, F107L, N108D
VL: B5 VL with N92S, S93R, Y94F
B8: R13 (antibody, V domains shown)
VH: QVQLVESGGGLVQPGGSLRLSCAASGFTFSYYDIQWVRQAPGKGLEWVSSISPSGQSTYYRREVKGRFTISRDNSKNTLYLQMNSLRAEDTAVYYCARRTGREYGGGWYFDYWGQGTLVTVSS
VL: B5 VL with N92S, S93R, Y94F
B9: R14 (antibody, V domains shown)
VH: B5 VH with R100K, A101W, M102Y, H104Y, S106A, F107L, N108D
VL: B5 VL with Q89L, F91V, N92Y, S93R, Y94S

biological target: biotinylated human CD137 (human) (UniProt Q07011); experiment: phage ELISA, biotinylated human CD137 on StreptaWell plates

binding, binds:
B1, B2, B3, B4, B5, B6, B7, B8, B9
